Test [1] has as its target His6-tagged BiP substrate binding domain (residues 422–654) (human) (UniProt P11021). The test can be described thus: pull-down; His6-tagged BiP protein (25 μM) held on TALON resin, untagged Ire1 LD, Perk LD or CH1 at 500 μM added, 1 hr RT, buffer B; SDS-PAGE, coomassie; both purified.
Test [2] concerns the target His6-tagged full-length BiP (residues 28–654) (human) (UniProt P11021). The description is as above.
The target of test [3] is Perk luminal domain, complete (region I–V, residues 54–509) (human) (UniProt Q9NZJ5). The description is as above.
Test [4] deals with BiP ATPase domain (residues 28–405), His6-tag removed (human) (UniProt P11021). As to the kind of experiment: MST; Monolith NT.115; buffer B (50 mM HEPES pH 7.5, 75 mM NaCl, 10% glycerol, 1 mM TCEP), no nucleotide; one partner labelled (Red-NHS) at 50 nM, sixteen twofold dilutions of the unlabelled partner (which was labelled is not told); 25°C; three independent experiments averaged; both purified.

Amino acid sequences for entries named in this document (tags omitted). A change or cut given only in a name is not applied to a line headed by its entry. Chains listed by the source or under a name are the forms on record and can include a tag or linker. Residues count along the entry.
UniProt P11021: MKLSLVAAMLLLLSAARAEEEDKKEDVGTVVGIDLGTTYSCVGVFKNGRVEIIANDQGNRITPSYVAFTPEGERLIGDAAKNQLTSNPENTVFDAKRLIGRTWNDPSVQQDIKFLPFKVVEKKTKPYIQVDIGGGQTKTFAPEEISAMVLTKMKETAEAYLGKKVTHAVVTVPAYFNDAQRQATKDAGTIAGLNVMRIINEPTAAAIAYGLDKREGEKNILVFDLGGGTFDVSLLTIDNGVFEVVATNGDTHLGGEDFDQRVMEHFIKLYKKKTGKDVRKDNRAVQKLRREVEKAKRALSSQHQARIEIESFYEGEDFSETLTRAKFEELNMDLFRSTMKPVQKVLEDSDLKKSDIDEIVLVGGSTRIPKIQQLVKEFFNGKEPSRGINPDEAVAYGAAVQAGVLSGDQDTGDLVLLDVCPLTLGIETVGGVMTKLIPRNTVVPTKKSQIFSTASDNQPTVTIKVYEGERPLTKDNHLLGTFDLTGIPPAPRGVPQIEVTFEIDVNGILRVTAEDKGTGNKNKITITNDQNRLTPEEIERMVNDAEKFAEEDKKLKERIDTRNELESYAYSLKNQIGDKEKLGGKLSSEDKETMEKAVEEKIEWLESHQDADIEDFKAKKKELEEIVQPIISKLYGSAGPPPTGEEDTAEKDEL
His6-tagged full-length BiP (residues 28–654): residues 28-654 of P11021
BiP ATPase domain (residues 28–405), His6-tag removed: residues 28-405 of P11021
His6-tagged BiP substrate binding domain (residues 422–654): residues 422-654 of P11021
UniProt Q9NZJ5, residues 54-509: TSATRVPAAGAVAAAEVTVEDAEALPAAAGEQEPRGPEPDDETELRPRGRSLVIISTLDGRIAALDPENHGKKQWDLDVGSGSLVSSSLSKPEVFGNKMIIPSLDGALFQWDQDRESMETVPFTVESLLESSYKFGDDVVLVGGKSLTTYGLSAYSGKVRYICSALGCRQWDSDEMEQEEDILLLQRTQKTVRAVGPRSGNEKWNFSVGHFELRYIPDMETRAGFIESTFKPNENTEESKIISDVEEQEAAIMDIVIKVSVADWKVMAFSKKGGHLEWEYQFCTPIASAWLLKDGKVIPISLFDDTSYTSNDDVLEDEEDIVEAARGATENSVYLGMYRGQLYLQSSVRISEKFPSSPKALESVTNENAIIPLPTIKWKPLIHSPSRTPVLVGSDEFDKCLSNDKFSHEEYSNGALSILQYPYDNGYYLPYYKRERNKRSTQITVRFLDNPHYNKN

The target in test [5] is Perk luminal domain, complete (region I–V, residues 54–509) (human) (UniProt Q9NZJ5). Described as above.

Results are given in words; binding and its absence hold for the method and conditions named. For some assays here: Binding can be weak; no strength is given.

With “unfolded protein CH1 (immunoglobulin constant heavy chain domain) (from UniProt P01868) (domain or fragment)”, the binding result is recorded as “binds” in test [1]; “binds” in test [2]; “no binding” in test [3]; “no binding” in test [4]; “no binding” in test [5].

These data come from publication PMC4337721.
